Results are given in words; binding and its absence hold for the method and conditions named. Some entries that bind do so weakly or less than the wild type.
Biological target: recombinant 3XFLAG-PRL-3 (human) (UniProt O75365)
Assay: co-IP; purified 3XFLAG-PRL-3 on anti-FLAG M2 magnetic beads; CBS-HA and nanobody added in 1:1.1 molar ratios, alone, one after the other or together, 1 h each at 4 C; 300 mM NaCl, 20 mM Tris pH 7.5; western blot (anti-HA, anti-His, anti-FLAG); both purified

Sequences of proteins named here, by UniProt entry; tags and fusion partners are left off. Residues count along the entry.
UniProt O75365: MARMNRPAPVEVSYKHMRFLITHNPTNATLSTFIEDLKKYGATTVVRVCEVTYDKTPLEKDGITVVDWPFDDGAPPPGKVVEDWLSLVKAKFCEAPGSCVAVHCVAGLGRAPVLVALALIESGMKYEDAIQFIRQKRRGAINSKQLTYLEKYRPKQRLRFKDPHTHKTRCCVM
UniProt Q8NE01, residues 309-452: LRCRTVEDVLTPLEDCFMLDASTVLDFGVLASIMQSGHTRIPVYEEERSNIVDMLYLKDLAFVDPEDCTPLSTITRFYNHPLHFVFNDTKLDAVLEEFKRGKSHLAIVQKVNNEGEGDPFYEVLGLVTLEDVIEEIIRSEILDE

binding: binds
Substance: CBS-HA (CNNM3 CBS domain pair fused to a hemagglutinin tag) (from UniProt Q8NE01 309-452) (domain or fragment)
